Data published in publication PMC6646333 (Nature Communications, 2019).

Assay: general procedure: hybrid (solid and solution phase) peptide synthesis; DEPBT/DIEA; HATU/HOAt/DIEA
Conditions: for step yield: coupling step

Substance | step yield [%] | step yield (from compound 16) [%] | isolated yield (whole synthesis, overall from compound 9, scale of the general procedure gram scale of the general procedure) [%]
linear pentapeptide 15 | 63 | – | –
teixobactin | 31 | 31 | 8
